Changes are numbered by the printed parent chain. No constants are given. Whether binding was seen depends on the method and setting. In cells and extracts the contact can be indirect. Some binding calls cover weakened binding; strength is not graded here. For some assays here: Tags and fused reporters may be left off the sequences shown.
B1: myc-tagged 14-3-3 η isoform (protein, UniProt P68511 1-246)
chain: MGDREQLLQRARLAEQAERYDDMASAMKAVTELNEPLSNEDRNLLSVAYKNVVGARRSSWRVISSIEQKTMADGNEKKLEKVKAYREKIEKELETVCNDVLALLDKFLIKNCNDFQYESKVFYLKMKGDYYRYLAEVASGEKKNSVVEASEAAYKEAFEISKEHMQPTHPIRLGLALNFSVFYYEIQNAPEQACLLAKQAFDDAIAELDTLNEDSYKDSTLIMQLLRDNLTLWTSDQQDEEAGEGN
B2: myc-tagged 14-3-3 γ isoform (protein, UniProt P61983 1-247)
chain: MVDREQLVQKARLAEQAERYDDMAAAMKNVTELNEPLSNEERNLLSVAYKNVVGARRSSWRVISSIEQKTSADGNEKKIEMVRAYREKIEKELEAVCQDVLSLLDNYLIKNCSETQYESKVFYLKMKGDYYRYLAEVATGEKRATVVESSEKAYSEAHEISKEHMQPTHPIRLGLALNYSVFYYEIQNAPEQACHLAKTAFDDAIAELDTLNEDSYKDSTLIMQLLRDNLTLWTSDQQDDDGGEGNN
B3: myc-tagged 14-3-3θ (protein, UniProt P68255 1-245)
chain: MEKTELIQKAKLAEQAERYDDMATCMKAVTEQGAELSNEERNLLSVAYKNVVGGRRSAWRVISSIEQKTDTSDKKLQLIKDYREKVESELRSICTTVLELLDKYLIANATNPESKVFYLKMKGDYFRYLAEVACGDDRKQTIENSQGAYQEAFDISKKEMQPTHPIRLGLALNFSVFYYEILNNPELACTLAKTAFDEAIAELDTLNEDSYKDSTLIMQLLRDNLTLWTSDSAGEECDAAEGAEN
B4: 14-3-3θ in lysates of HEK293T cells over-expressing the YFP vector, YFP-difopein or YFP-R18 mutant (protein, UniProt P27348 1-245)
chain: B3 chain with E143D
B5: in vitro translated 14-3-3θ (protein, UniProt P68255 1-245)
chain: B3 chain
B6: myc-tagged 14-3-3 α/β isoform (protein, UniProt P35213 1-246)
chain: MTMDKSELVQKAKLAEQAERYDDMAAAMKAVTEQGHELSNEERNLLSVAYKNVVGARRSSWRVISSIEQKTERNEKKQQMGKEYREKIEAELQDICSDVLELLDKYLILNATHAESKVFYLKMKGDYFRYLSEVASGDNKQTTVSNSQQAYQEAFEISKKEMQPTHPIRLGLALNFSVFYYEILNSPEKACSLAKTAFDEAIAELDTLNEESYKDSTLIMQLLRDNLTLWTSENQGDEGDAGEGEN
B7: rEag2 (rat Eag2 potassium channel) (protein, UniProt Q9EPI9 1-988)
chain: MPGGKRGLVAPQNTFLENIVRRSSESSFLLGNAQIVDWPVVYSNDGFCKLSGYHRADVMQKSSTCSFMYGELTDKKTIEKVRQTFDNYESNCFEVLLYKKNRTPVWFYMQIAPIRNEHEKVVLFLCTFKDITLFKQPIEDDSTKGWTKFARLTRALTNSRSVLQQLTPMNKTETVHKHSRLAEVLQLGSDILPQYKQEAPKTPPHIILHYCAFKTTWDWVILILTFYTAIMVPYNVSFKTKQNNIAWLVLDSVVDVIFLVDIVLNFHTTFVGPGGEVISDPKLIRMNYLKTWFVIDLLSCLPYDIINAFENVDEGISSLFSSLKVVRLLRLGRVARKLDHYLEYGAAVLVLLVCVFGLVAHWLACIWYSIGDYEVIDEVTNTIQIDSWLYQLALSIGTPYRYNTSAGIWEGGPSKDSLYVSSLYFTMTSLTTIGFGNIAPTTDVEKMFSVAMMMVGSLLYATIFGNVTTIFQQMYANTNRYHEMLNNVRDFLKLYQVPKGLSERVMDYIVSTWSMSKGIDTEKVLSICPKDMRADICVHLNRKVFNEHPAFRLASDGCLRALAVEFQTIHCAPGDLIYHAGESVDALCFVVSGSLEVIQDEEVVAILGKGDVFGDIFWKETTLAHACANVRALTYCDLHIIKREALLKVLDFYTAFANSFSRNLTLTCNLRKRIIFRKISDVKKEEEERLRQKNEVTLSIPVDHPVRKLFQKFKQQKELRNQGSAQSDPERSQLQVESRPLQNGASITGTSVVTVSQITPIQTSLAYVKTSETLKQNNRDAMELKPNGGAEPKCLKVNSPIRMKNGNGKGWLRLKNNMGAHEEKKEEWNNVTKAESMGLLSEDPKGSDSENSVTKNPLRKTDSCDSGITKSDLRLDKAGEARSPLEHSPSQADAKHPFYPIPEQALQTTLQEVKHELKEDIQLLSCRMTALEKQVAEILKLLSEKSVPQTSSPKPQIPLQVPPQIPCQDIFSVSRPESPESDKDEINF

Chains of the proteins cited; added tags and fusions are not shown. Lines headed by an entry give the natural chain unless they say otherwise; changes in a name come on top. Residues count along the entry.
UniProt Q63472: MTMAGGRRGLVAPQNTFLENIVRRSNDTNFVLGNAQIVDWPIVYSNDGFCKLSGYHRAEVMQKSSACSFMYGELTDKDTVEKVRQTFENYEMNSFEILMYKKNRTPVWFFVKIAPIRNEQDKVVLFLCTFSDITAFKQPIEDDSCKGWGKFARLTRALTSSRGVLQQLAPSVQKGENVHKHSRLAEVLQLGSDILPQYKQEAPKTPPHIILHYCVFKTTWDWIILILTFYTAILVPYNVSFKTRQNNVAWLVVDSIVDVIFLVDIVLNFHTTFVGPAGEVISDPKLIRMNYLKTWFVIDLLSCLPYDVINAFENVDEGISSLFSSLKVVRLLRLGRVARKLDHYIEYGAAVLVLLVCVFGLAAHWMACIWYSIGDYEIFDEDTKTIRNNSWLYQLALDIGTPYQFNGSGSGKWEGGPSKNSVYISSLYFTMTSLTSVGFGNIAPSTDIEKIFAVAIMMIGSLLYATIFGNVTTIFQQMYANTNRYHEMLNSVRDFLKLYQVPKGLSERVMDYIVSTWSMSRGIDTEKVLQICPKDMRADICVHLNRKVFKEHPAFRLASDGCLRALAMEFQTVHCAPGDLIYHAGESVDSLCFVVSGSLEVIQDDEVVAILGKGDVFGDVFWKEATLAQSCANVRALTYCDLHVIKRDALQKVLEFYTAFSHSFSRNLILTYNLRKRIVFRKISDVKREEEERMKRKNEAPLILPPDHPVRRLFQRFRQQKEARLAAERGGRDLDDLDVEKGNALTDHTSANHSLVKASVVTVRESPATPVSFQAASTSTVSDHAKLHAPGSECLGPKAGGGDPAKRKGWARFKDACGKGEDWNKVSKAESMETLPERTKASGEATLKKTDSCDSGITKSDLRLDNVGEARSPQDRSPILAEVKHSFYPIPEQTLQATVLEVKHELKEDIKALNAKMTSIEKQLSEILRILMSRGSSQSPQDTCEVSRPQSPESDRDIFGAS
GST-N207 (GST fusion protein of the rEag1 N-terminus, amino acids 1-207): residues 1-207 of Q63472
GST-C1 (rEag1 amino acids 492-724): residues 492-724 of Q63472
GST-C0 (GST fusion protein of the rEag1 cytoplasmic C-terminus, amino acids 493-962): residues 493-962 of Q63472
GST-C1-2 (rEag1 CNBHD region, amino acids 561-672): residues 561-672 of Q63472
UniProt P62260: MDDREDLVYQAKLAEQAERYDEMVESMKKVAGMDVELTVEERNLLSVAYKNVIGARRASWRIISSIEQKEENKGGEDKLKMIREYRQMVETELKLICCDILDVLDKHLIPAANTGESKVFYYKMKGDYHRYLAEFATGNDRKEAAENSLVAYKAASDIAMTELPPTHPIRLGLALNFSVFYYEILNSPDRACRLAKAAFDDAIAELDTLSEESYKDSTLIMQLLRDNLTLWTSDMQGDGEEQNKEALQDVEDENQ
UniProt P63102: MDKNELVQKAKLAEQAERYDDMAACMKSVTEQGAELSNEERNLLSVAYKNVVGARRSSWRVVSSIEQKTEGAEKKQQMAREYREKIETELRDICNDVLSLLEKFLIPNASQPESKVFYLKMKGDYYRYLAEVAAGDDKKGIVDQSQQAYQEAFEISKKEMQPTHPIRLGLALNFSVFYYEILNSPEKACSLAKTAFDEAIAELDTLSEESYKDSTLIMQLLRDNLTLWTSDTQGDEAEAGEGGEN
UniProt Q12809: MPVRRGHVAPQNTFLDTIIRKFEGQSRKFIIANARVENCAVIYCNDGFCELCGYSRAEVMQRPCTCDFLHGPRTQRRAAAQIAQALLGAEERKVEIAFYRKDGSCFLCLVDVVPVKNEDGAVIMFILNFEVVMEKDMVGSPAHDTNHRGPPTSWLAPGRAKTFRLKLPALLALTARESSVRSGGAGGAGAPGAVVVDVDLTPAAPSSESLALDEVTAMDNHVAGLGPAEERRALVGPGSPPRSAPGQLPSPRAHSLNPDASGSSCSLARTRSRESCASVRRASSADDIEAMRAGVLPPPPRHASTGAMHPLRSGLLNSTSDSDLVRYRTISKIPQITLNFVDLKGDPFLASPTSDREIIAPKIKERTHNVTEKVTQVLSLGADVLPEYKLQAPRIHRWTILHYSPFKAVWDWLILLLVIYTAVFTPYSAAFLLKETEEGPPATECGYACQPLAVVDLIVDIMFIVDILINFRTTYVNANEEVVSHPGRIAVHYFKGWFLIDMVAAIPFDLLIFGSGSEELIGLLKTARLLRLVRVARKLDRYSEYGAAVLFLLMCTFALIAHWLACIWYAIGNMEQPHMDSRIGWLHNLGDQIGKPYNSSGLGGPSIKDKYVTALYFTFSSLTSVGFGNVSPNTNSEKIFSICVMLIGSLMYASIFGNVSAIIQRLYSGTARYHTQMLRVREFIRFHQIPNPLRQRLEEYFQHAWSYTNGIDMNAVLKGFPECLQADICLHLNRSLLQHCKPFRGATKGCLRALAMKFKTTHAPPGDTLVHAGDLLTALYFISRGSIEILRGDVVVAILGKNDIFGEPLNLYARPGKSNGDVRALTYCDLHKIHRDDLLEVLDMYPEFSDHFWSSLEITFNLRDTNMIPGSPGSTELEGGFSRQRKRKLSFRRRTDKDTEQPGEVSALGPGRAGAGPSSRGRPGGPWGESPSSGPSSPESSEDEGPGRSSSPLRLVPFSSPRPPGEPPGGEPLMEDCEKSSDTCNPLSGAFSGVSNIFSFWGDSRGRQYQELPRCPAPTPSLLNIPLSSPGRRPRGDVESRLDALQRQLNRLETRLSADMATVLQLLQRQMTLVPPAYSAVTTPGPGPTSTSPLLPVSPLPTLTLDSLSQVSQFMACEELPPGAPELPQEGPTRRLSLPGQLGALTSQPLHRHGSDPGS

Tests used:
myc-tagged 14-3-3θ (rat) = target: T1, myc-tagged 14-3-3θ (rat) (UniProt P68255); assay: co-IP; HEK293T cells co-transfected with the channel and myc-tagged 14-3-3; lysates in buffer A with 1% Triton X-100; IP with anti-myc or anti-rEag1 on protein G-Sepharose, 16 hrs at 4°C; also after 1-hr treatment of the cells with 1 µM okadaic acid or staurosporine
T1 sequence: B3 chain

[1] = target: GST-N207 (GST fusion protein of the rEag1 N-terminus, amino acids 1-207) (rat) (UniProt Q63472); assay: pull-down; GST protein-coated glutathione-agarose beads (4-8 µg) incubated with lysates of HEK293T cells expressing myc-tagged 14-3-3 isoforms at 4°C overnight; washed with buffer A; immunoblot with anti-myc; only the target purified
[2] = target: GST-C0 (GST fusion protein of the rEag1 cytoplasmic C-terminus, amino acids 493-962) (rat) (UniProt Q63472); assay: as above
[3] = target: T2, endogenous 14-3-3θ of rat forebrain (rat (endogenous in rat forebrain)) (UniProt P68255); assay: co-IP; detergent solubilized crude membrane (P2) fraction of rat forebrain homogenates; IP with anti-14-3-3θ, immunoblot with anti-rEag1; non-immune IgG as negative control
T2 sequence: B3 chain

myc-tagged 14-3-3ε (rat) = myc-tagged 14-3-3ε (rat) (UniProt P62260); assay: co-IP; HEK293T cells co-transfected with the channel and myc-tagged 14-3-3; lysates in buffer A with 1% Triton X-100; IP with anti-myc or anti-rEag1 on protein G-Sepharose, 16 hrs at 4°C; also after 1-hr treatment of the cells with 1 µM okadaic acid or staurosporine
[4] = target: full-length rEag1 (rat Eag1 potassium channel) (rat) (UniProt Q63472); assay: as above
[5] = target: GST-C1-2 (rEag1 CNBHD region, amino acids 561-672) (rat) (UniProt Q63472); assay: pull-down; GST protein-coated glutathione-agarose beads (4-8 µg) incubated with lysates of HEK293T cells expressing myc-tagged 14-3-3 isoforms at 4°C overnight; washed with buffer A; immunoblot with anti-myc; only the target purified
[6] = target: GST-C1 (rEag1 amino acids 492-724) (rat) (UniProt Q63472); assay: as above
[7] = target: GST-N207 (GST fusion protein of the rEag1 N-terminus, amino acids 1-207) (rat) (UniProt Q63472); assay: pull-down; GST-C0 or GST-N207 beads with lysates of HEK293T cells over-expressing the YFP vector, YFP-difopein or YFP-R18 mutant; immunoblot with anti-14-3-3θ; only the target purified
[8] = target: GST-C0 (GST fusion protein of the rEag1 cytoplasmic C-terminus, amino acids 493-962) (rat) (UniProt Q63472); assay: as above
[9] = target: GST-N207 (GST fusion protein of the rEag1 N-terminus, amino acids 1-207) (rat) (UniProt Q63472); assay: pull-down; GST protein-coated glutathione-agarose beads (4-8 µg) incubated with pre-cleared in vitro translated 14-3-3θ at 4°C overnight; washed with buffer A; immunoblot with anti-14-3-3θ; only the target purified
[10] = target: GST-C0 (GST fusion protein of the rEag1 cytoplasmic C-terminus, amino acids 493-962) (rat) (UniProt Q63472); assay: as above

Row | Molecule | binding [1] | binding [2] | other results
1 | full-length rEag1 (rat Eag1 potassium channel) (from UniProt Q63472 1-962) |  |  | binding (myc-tagged 14-3-3θ (rat)): binds
2 | myc-tagged 14-3-3 ζ/δ isoform (from UniProt P63102 1-245) | binds | binds | 
3 | endogenous rEag1 of rat forebrain (from UniProt Q63472 1-962) |  |  | binding [3]: binds
4 | Herg channel (from UniProt Q12809 1-1159) |  |  | binding (myc-tagged 14-3-3ε (rat)): binds
5 | myc-tagged 14-3-3ε (from UniProt P62260 1-255) | no binding | no binding | 
6 | B1 | binds | binds | 
7 | B2 | binds | binds | 
8 | B3 | binds | binds | binding [4]: binds; binding [5]: binds; binding [6]: binds
9 | B4 |  |  | binding [7]: binds; binding [8]: binds
10 | B5 |  |  | binding [9]: binds; binding [10]: binds
11 | B6 | binds | binds | 
12 | B7 |  |  | binding (myc-tagged 14-3-3θ (rat)): no binding

Reference: article PMC3401112
